Measured data: PubChem BioAssay AID1259254 (NCATS, 2017)
Test: 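Finding genes that stop cells copying their DNA twice in one cycle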 (primary screen). System: human HCT116 colorectal cancer cells. Reagent: single siRNA against human genes. Duration: 3 days. Read-out: 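Imaged Hoechst DNA stain sorts each cell into a cycle phase by DNA amount; per plate, G2 fraction set to 0% for non-targeting and 100% for GMNN siRNA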. Scale: G2 robust z-score and G2 cells, % of GMNN control: higher = more G2 cells, more excess DNA replication. Call rule: 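Active siRNAs have a G2 robust z of 5 or more median absolute deviations over the median, which in these data means about 38% or higher of GMNN control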.
The whole screen tested about 59,000 reagents; below is an unselected part. Of all reagents, about 1,550 (2.6%) were called active. 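G2 share is only a proxy for re-replication; each gene was hit by three separate siRNAs, and active genes were retested.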 A number with no mark means an inactive call. Reagents against one gene are numbered here. Not all columns of the deposit are shown. No sequences are given here. Not stated in the record: the amount of reagent.

target gene	reagent	G2 robust z-score	G2 cells, % of GMNN control
OSBPL1A (oxysterol binding protein like 1A)	1	-1.21	-5.57
OSBPL1A (oxysterol binding protein like 1A)	2	0.157	4.07
OSBPL1A (oxysterol binding protein like 1A)	3	1.07	10.5
SLC39A2	1	0.593	7.14
SLC39A2	2	0.394	5.74
SLC39A2	3	5.87 (active)	44.3
C5AR1 (complement C5a receptor 1)	1	-1.33	-6.39
C5AR1 (complement C5a receptor 1)	2	-1.01	-4.14
C5AR1 (complement C5a receptor 1)	3	3.85	30.1
LOC647264 (keratin-associated protein 21-1)	1	-0.173	1.75
LOC647264 (keratin-associated protein 21-1)	2	0.95	9.65
LOC647264 (keratin-associated protein 21-1)	3	0.3	5.08
ZNF177 (zinc finger protein 177)	1	-0.374	0.334
ZNF177 (zinc finger protein 177)	2	0.0444	3.28
ZNF177 (zinc finger protein 177)	3	0.964	9.75
SMCO1 (single-pass membrane protein with coiled-coil domains 1)	1	2.37	19.6
SMCO1 (single-pass membrane protein with coiled-coil domains 1)	2	-0.66	-1.67
SMCO1 (single-pass membrane protein with coiled-coil domains 1)	3	2.79	22.6
HOXB6 (homeobox B6)	1	-0.784	-2.55
HOXB6 (homeobox B6)	2	0.111	3.75
HOXB6 (homeobox B6)	3	-0.659	-1.67
TLX1NB (TLX1 neighbor)	1	-1.06	-4.48
TLX1NB (TLX1 neighbor)	2	3.68	28.8
TLX1NB (TLX1 neighbor)	3	1.59	14.2
OSTF1 (osteoclast stimulating factor 1)	1	-1.08	-4.65
OSTF1 (osteoclast stimulating factor 1)	2	0.99	9.93
OSTF1 (osteoclast stimulating factor 1)	3	-0.98	-3.93

Called active, of those listed so far:
target gene	reagent	G2 robust z-score	G2 cells, % of GMNN control
SLC39A2	3	5.87 (active)	44.3

More reagents follow.
target gene	reagent	G2 robust z-score	G2 cells, % of GMNN control
ZNF483 (zinc finger protein 483)	1	2.84	23
ZNF483 (zinc finger protein 483)	2	-0.09	2.33
ZNF483 (zinc finger protein 483)	3	-0.571	-1.05
AQP5 (aquaporin 5)	1	1.19	11.4
AQP5 (aquaporin 5)	2	-0.964	-3.81
AQP5 (aquaporin 5)	3	3.47	27.4
TYW5 (tRNA-yW synthesizing protein 5)	1	0.189	4.29
TYW5 (tRNA-yW synthesizing protein 5)	2	1.93	16.5
TYW5 (tRNA-yW synthesizing protein 5)	3	-0.671	-1.75
SAPCD2 (suppressor APC domain containing 2)	1	1.93	16.6
SAPCD2 (suppressor APC domain containing 2)	2	6.28 (active)	47.2
SAPCD2 (suppressor APC domain containing 2)	3	-0.192	1.62
ASCL1 (achaete-scute family bHLH transcription factor 1)	1	1.07	10.5
ASCL1 (achaete-scute family bHLH transcription factor 1)	2	-0.314	0.759
ASCL1 (achaete-scute family bHLH transcription factor 1)	3	-0.787	-2.57
MGST1 (microsomal glutathione S-transferase 1)	1	-0.399	0.162
MGST1 (microsomal glutathione S-transferase 1)	2	-0.861	-3.09
MGST1 (microsomal glutathione S-transferase 1)	3	-0.183	1.68
CA14 (carbonic anhydrase 14)	1	2.21	18.5
CA14 (carbonic anhydrase 14)	2	0.688	7.81
CA14 (carbonic anhydrase 14)	3	0.24	4.66
NKTR (natural killer cell triggering receptor)	1	-1.17	-5.28
NKTR (natural killer cell triggering receptor)	2	2.65	21.6
NKTR (natural killer cell triggering receptor)	3	4.87	37.2
SERPINB5 (serpin family B member 5)	1	-1.07	-4.55
SERPINB5 (serpin family B member 5)	2	0.445	6.1
SERPINB5 (serpin family B member 5)	3	3.08	24.6
UBE2G2 (ubiquitin conjugating enzyme E2 G2)	1	-0.869	-3.14
UBE2G2 (ubiquitin conjugating enzyme E2 G2)	2	1.14	11
UBE2G2 (ubiquitin conjugating enzyme E2 G2)	3	-0.604	-1.29
THAP3 (THAP domain containing 3)	1	1.93	16.6
THAP3 (THAP domain containing 3)	2	-0.718	-2.08
THAP3 (THAP domain containing 3)	3	0.562	6.92
ATP6V1F (ATPase H+ transporting V1 subunit F)	1	-0.913	-3.46
ATP6V1F (ATPase H+ transporting V1 subunit F)	2	3.96	30.9
ATP6V1F (ATPase H+ transporting V1 subunit F)	3	1.3	12.1
TRAK1 (trafficking kinesin protein 1)	1	-0.996	-4.04
TRAK1 (trafficking kinesin protein 1)	2	-0.225	1.38
TRAK1 (trafficking kinesin protein 1)	3	0.592	7.13
ASB6 (ankyrin repeat and SOCS box containing 6)	1	0.789	8.52
ASB6 (ankyrin repeat and SOCS box containing 6)	2	-0.561	-0.978
ASB6 (ankyrin repeat and SOCS box containing 6)	3	-0.682	-1.83
